Taken from: PubChem BioAssay AID652259 (Drosophila RNAi Screening Center, 2013)
In all, the deposit lists about 22,000 reagents; this is an unselected part of those with a known target gene and a result. Over the whole deposit, 233 (1.1%) got an active call. 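Light values are raw, unnormalised plate reads; the ratio scores behind the reporter calls were not deposited.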 A number with no mark means an inactive call. Names joined by + are all predicted targets of the reagent. Not stated in the record: the amount of reagent, the time to read-out, the dose of the treatment.

Test: 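Genome-wide hunt for genes that control Wingless pathway activity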 (primary screen)
Cells: Drosophila clone 8 imaginal disc epithelial cells
Knock-down reagent: long dsRNA against Drosophila genes
Treatment: pathway stimulated by co-transfected Wingless expression plasmid
Detection: 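Dual luciferase reads per well after Wingless plasmid stimulation: reporter firefly light and Renilla control light; activity is firefly divided by Renilla, a ratio not deposited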
Scale: firefly reporter light: higher = more Wg reporter light, before normalisation; Renilla control light: higher = more transfected or surviving cells
Rule for the call: 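Strong candidates differ from their plate mean by at least two out of four per-plate statistical tests; weak candidates meet just one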
Calls: active = candidate regulator (raises or lowers reporter); inactive = not a candidate

Target gene	DRSC id	firefly reporter light, replicate 1	firefly reporter light, replicate 2	Renilla control light, replicate 1	Renilla control light, replicate 2
CG9289 (GeneID 34195)	DRSC03187	1723	7178	699	2781
CG31064 (GeneID 43277)	DRSC14756	4530		3864	
CG31064 (GeneID 43277)	DRSC15941	7648		2648	
CG31064 (GeneID 43277)	DRSC15942	6371		2365	
CG31064 (GeneID 43277)	DRSC15943	8950		1815	
bnk (GeneID 43687)	DRSC16912	7744		2705	
CG4119 (GeneID 31481)	DRSC17741	3040	11704	1376	3121
CG31272 (GeneID 326130)	DRSC16058	13905		2964	
CG2611 (GeneID 35324)	DRSC02710	12481		4220	
AdamTS-B (GeneID 31490)	DRSC17402	2650		818	
AdamTS-B (GeneID 31490)	DRSC18346	23627		11113	
CG17816 (GeneID 40928)	DRSC15277	11340		4016	
CG31627 (GeneID 318860)	DRSC22143	5.36e5	5.98e5	2.05e5	2.05e5
CG8852 (GeneID 33577)	DRSC00719	1616	5708	829	1445
Gcn2 (GeneID 43709)	DRSC16678	3478	3942	1367	1441
Pof (GeneID 37947)	DRSC04405	8480		2187	
Gpo3 (GeneID 34776)	DRSC01978	3220	6016	1446	3280
Or22b (GeneID 33336)	DRSC00765	2264	7429	941	2673
pHCl-1 (GeneID 39730)	DRSC09401	2791		920	
pHCl-1 (GeneID 39730)	DRSC09888	7290		2872	
pHCl-1 (GeneID 39730)	DRSC09991	7632		3968	
pHCl-1 (GeneID 39730)	DRSC10589	8304		3717	
CG32243 (GeneID 317935)	DRSC08105	4700		2128	
CBP (GeneID 31669)	DRSC17746	3636	9776	1041	2597
Slc25A46b (GeneID 35081)	DRSC02888	1881	4948	933	2146
CG15317 (GeneID 31898)	DRSC18005	21584		10443	
RhoGAP92B (GeneID 42371)	DRSC14507	16509		3619	
RhoGAP92B (GeneID 42371)	DRSC15637	11597		2757	
CG31161 (GeneID 326123)	DRSC16144	23024		16800	
Non2 (GeneID 38341)	DRSC08272	18141		6226	
CG6938 (GeneID 39362)	DRSC10752	4787		2428	
CG42568 + DnaJ-60	DRSC04207	3464	8486	480	2274
CG42568 + DnaJ-60	DRSC04611	14061		4144	
Lgr3 (GeneID 43098)	DRSC15704	19169		14311	
Lgr3 (GeneID 43098)	DRSC15706	22144		17255	
CG7140 (GeneID 40445)	DRSC11799	15757		4216	
CG30480 (GeneID 246640)	DRSC06736	3859		2091	
zormin (GeneID 2769001)	DRSC07969	3488		1718	
zormin (GeneID 2769001)	DRSC08210	5035		2316	
zormin (GeneID 2769001)	DRSC08212	3860		2074	
zormin (GeneID 2769001)	DRSC08213	5330		2381	
zormin (GeneID 2769001)	DRSC08297	4155		2124	
zormin (GeneID 2769001)	DRSC08571	19971		2880	
zormin (GeneID 2769001)	DRSC22483	8.34e5	7.19e5	4.19e5	5562
e(r) (GeneID 43951)	DRSC18768	3019	7185	993	2482
CG33003 (GeneID 318826)	DRSC22419	6.75e5	6.53e5	2.89e5	2.80e5
CG2938 (GeneID 31347)	DRSC18243	3766	10256	1891	3376
CG10802 (GeneID 31318)	DRSC17762	3639	8512	1765	3869
Cpr51A (GeneID 36613)	DRSC05969	8083		2512	
Capa (GeneID 43541)	DRSC15058	5442	5468	1897	2218
Eno (GeneID 33351)	DRSC00750	3860	8562	999	3248
CR11386 + CR33222	DRSC17781	15008		9233	
AttD (GeneID 42122)	DRSC16272	2344		852	
Osi18 (GeneID 40775)	DRSC12181	14624		4224	
Trxr2 (GeneID 40475)	DRSC11900	15101		5360	
CG2975 (GeneID 33481)	DRSC00556	2909	8944	1511	3558
CG16790 (GeneID 41155)	DRSC15156	16305		2725	
CG6435 (GeneID 36894)	DRSC06987	4055		1904	
Usp39 (GeneID 32881)	DRSC20032	3709	10556	928	2553
Itgbn (GeneID 35368)	DRSC03493	3216	7140	1139	3500
U3-55K (GeneID 3346176)	DRSC05982	5548		2824	
Pka-C1 (GeneID 34284)	DRSC03399	8249		3252	
Yp3 (GeneID 32339)	DRSC20302	21974		14921	
Ugt50B3 (GeneID 246614)	DRSC04778	20379		12194	
Ugt50B3 (GeneID 246614)	DRSC04779	22921		13592	
Ugt50B3 (GeneID 246614)	DRSC21419	2.36e5	2.36e5	1.46e5	1.23e5
Ir94c (GeneID 318727)	DRSC13539	3024		1616	
Fas2 (GeneID 31364)	DRSC17308	2711		1216	
Fas2 (GeneID 31364)	DRSC17309	3180		1125	
Fas2 (GeneID 31364)	DRSC18664	2233	6807	1168	2324
CG42266 (GeneID 7354431)	DRSC21577	3.77e5	4.20e5	1.45e5	1.63e5
CG42266 (GeneID 7354431)	DRSC21957	3.07e5	4.10e5	1.49e5	1.89e5
Csp (GeneID 40459)	DRSC11860	6083		2656	

Look-ups from above.
For “Renilla control light, replicate 1”, Fas2 (GeneID 31364) [DRSC17308] shows 1216
CG32243 (GeneID 317935) [DRSC08105], firefly reporter light, replicate 1 → 4700
Result of CG4119 (GeneID 31481) [DRSC17741] under “Renilla control light, replicate 2”: 3121
Under “Renilla control light, replicate 1”, AttD (GeneID 42122) [DRSC16272] is entered as 852
Value of Pof (GeneID 37947) [DRSC04405] under “Renilla control light, replicate 1”: 2187
Result of Ugt50B3 (GeneID 246614) [DRSC04779] in “firefly reporter light, replicate 1”: 22921
